Publication PMC4793076
Construct, isoform or probe ends are uncertain for at least one entry. Results from cells or extracts need not show a direct contact. For part of these data: No signal at the amounts used counts as a negative. Protein sequences can lack the tags named with them.

What was measured:
NFATc1 (Homo sapiens) [1] = biological target: T1, NFATc1 (Homo sapiens) (UniProt O95644); assay: promoter enzyme immunoassay (ELISA); details: poly(dI-dC), anti-NFATc1 detection; ELISA: 5 pmol probe/well, 20 ug nuclear extract, 4 C 2 h, washes in HKMG (10 mM HEPES pH 7.9, 100 mM KCl, 5 mM MgCl2, 10% glycerol, 1 mM DTT, 0.5% NP-40); protein in an extract; label: 5'-biotin on sense strand
T1 sequence (looked up, limits assumed): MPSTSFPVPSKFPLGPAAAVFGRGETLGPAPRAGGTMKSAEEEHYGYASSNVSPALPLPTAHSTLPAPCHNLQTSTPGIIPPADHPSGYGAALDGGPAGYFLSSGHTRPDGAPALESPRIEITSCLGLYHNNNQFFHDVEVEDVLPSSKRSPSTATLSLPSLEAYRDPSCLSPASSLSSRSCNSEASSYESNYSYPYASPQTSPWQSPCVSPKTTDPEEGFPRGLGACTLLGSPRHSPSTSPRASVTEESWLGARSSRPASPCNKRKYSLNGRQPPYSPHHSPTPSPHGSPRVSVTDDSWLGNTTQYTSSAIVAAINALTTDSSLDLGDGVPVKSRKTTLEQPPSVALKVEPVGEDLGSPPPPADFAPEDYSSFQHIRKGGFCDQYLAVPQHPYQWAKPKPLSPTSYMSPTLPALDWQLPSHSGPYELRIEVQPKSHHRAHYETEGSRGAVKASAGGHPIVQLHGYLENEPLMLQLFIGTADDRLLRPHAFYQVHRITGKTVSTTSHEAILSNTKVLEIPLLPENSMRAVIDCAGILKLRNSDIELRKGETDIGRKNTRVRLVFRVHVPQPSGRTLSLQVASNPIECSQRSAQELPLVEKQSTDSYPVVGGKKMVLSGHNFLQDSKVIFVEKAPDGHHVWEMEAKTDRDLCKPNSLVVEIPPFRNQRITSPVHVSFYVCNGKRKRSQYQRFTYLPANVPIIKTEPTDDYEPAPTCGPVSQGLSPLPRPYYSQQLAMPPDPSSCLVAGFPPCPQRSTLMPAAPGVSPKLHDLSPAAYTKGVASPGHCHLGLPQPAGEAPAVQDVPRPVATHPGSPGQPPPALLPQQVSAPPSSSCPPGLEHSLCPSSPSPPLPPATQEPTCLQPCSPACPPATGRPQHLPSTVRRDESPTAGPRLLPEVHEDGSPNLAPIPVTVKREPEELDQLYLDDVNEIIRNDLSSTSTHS

NFATc1 (Homo sapiens) [2] = biological target: T1, NFATc1 (Homo sapiens); assay: EMSA (supershift); details: poly(dI-dC); EMSA: 10 mM Tris pH 7.4, 50 mM KCl, 1 mM DTT, 0.05 mg/ml poly(dI-dC), 5 mM MgCl2, 2.5% glycerol, 0.05% NP40, 20 min RT, 20 fmol probe, 6 ug nuclear protein; protein in an extract; label: 5'-biotin on sense strand

Row | Sequence | binding result (NFATc1 (Homo sapiens) [1]) | binding result (NFATc1 (Homo sapiens) [2])
1 | GTGGTTGGCTAGCCATTGAC (double strand) [NFAT-mut probe] | no binding | 
2 | GTGGTTGTGGAAACATTGAC (double strand) [NFAT wt probe (STAB2 promoter -188 to -183)] | binds | binds
